{"source": "patent US20240010634A1", "about": "“PYRIMIDINYL SULFONAMIDES AS INHIBITORS OF ACK1/TNK2 TYROSINE KINASE” (H. LEE MOFFITT CANCER CENTER AND RESEARCH INSTITUTE, INC., priority 2020, published 2024)", "origin": "cited, not measured here", "test_system": "ACK1 and Lck", "details": "cited from earlier work", "note": "At least one structure is not confirmed: it was looked up by name or label, or the drawing left a doubt.", "data": [{"compound": "c1ccc(-c2oc3ncnc(NC[C@@H]4CCCO4)c3c2-c2ccccc2)cc1", "note": "[Compound 1b]", "values": [{"measurement": "ACK1:Lck ratio", "result": "5:1"}]}]}
